Literature values as cited in article PMC12805357, “Cooperative ligand binding in a bacterial heme-based oxygen sensor” (The Journal of Biological Chemistry, 2025).

Set-up: method as in earlier work
Settings: myoglobins; ref 7 of the supplement (Faulkner et al., 1995)

sperm whale myoglobin (swMb): sperm whale myoglobin, literature comparison protein
n max: 0.9
